# Assay results from PubChem BioAssay AID504834 (National Center for Advancing Translational Sciences (NCATS), 2011).
# Screen size: about 320,000 compounds; about 22,000 (6.9%) were called active. The shares of active, inactive and inconclusive entries below differ from those in the screen. Calls come from the whole dose curve; as a rule, active = well fitted inhibition curve with a large enough effect; inconclusive = small, poorly fitted or top-dose-only effect, or another doubt; inactive = no such curve, though single readings can be large or run the other way. Potencies beside an inconclusive call are fits to weak or partial responses and may not hold up.
# Assay: Primary qHTS for delayed death inhibitors of the malarial parasite plastid, 96 hour incubation
# Conditions: P. falciparum luciferase reporter growth; series mostly up to 28.7 µM; activity change, negative = inhibition: at the top concentration
# Procedure, shortened: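 Erythrocytes infected with luciferase-expressing P. falciparum were dispensed at 2% hematocrit and 0.05% parasitemia (final), then incubated with compounds 96 hours at 37 C in 5% CO2. Luminescence after detection reagent addition reported growth.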
# % is set by controls: 0 for no effect and ±100 for the full control effect; potency is the fitted concentration of half-maximal effect.
SMILES,Potency,"activity change, negative = inhibition"
COCC(O)CSc1c([N+](=O)[O-])nc(C)n1Cc1ccc(OC)c([N+](=O)[O-])c1 (stereo unspecified),"inconclusive: 13.1 µM [inhibitor, single point]",
Cc1cc(C)n(-c2nc3sc4c(c3c3nnc(SCC(N)=O)n23)CC(C)(C)OC4)n1,"inconclusive: 7.38 µM [inhibitor, partial curve, poor fit]",
COc1ccc(-c2nnc(SCc3cc(C)cc(C)c3)o2)cc1,"inconclusive: 5.22 µM [inhibitor, partial curve, poor fit]",
OCCNc1nc(-c2ccccc2)c2cc(Br)ccc2n1,"inconclusive: 0.329 µM [inhibitor, full curve, poor fit]",
CCOC(=O)[C@H]1[C@H]2COc3ccc(OC)cc3[C@@H]2N2C(=O)CN(Cc3ccccc3)C(=O)[C@@]12C,"inconclusive: 2.08 µM [inhibitor, full curve, poor fit]",
Cc1cc(NC(=O)CSc2nc3ccccc3[nH]2)n(-c2ccccc2)n1,active: 4.65 µM,
O=C(NCC1CCCN(Cc2ccccc2F)C1)c1cccc(C(F)(F)F)c1 (stereo unspecified),active: 11.7 µM,
CC1(C)Cc2c(cnn2-c2cccc(F)c2)C(NC(=O)CSc2ccncc2)C1 (stereo unspecified),,inactive: 0%
CCOC(=O)N1CCN(C(=O)COc2cccc3c2CCN(CC)C3=O)CC1,"inconclusive: 18.5 µM [inhibitor, single point]",
COc1cccc(NC(=O)CN(C)CC(=O)c2c(C)[nH]c3ccccc23)c1,active: 11.7 µM,
CCCNC(=S)NNC(=O)c1cc(-c2cccnc2)nc2ccccc12,"inconclusive: 18.5 µM [inhibitor, single point]",
Cc1ccccc1-c1nc(Cc2ccccc2)no1,"inconclusive: 4.15 µM [inhibitor, single point]",
CN(Cc1nc2ccccc2c(=O)[nH]1)CC(O)COCc1ccco1 (stereo unspecified),active: 6.57 µM,
COc1ccc(Cl)cc1Nc1nc(C)nc2c1oc1ccccc12,"inconclusive: 11.7 µM [inhibitor, single point]",
CCc1cccc(CC)c1NC(=O)COC(=O)CC1c2ccccc2CCN1S(=O)(=O)c1ccccc1 (stereo unspecified),"inconclusive: 10.4 µM [inhibitor, single point]",
O=C(CSc1nnc(-c2ccco2)n1Cc1ccccc1)NC(=O)NCc1ccccc1,active: 11.7 µM,
CCc1cc2c(SCc3nc4sc(C(C)=O)c(C)c4c(=O)[nH]3)ncnc2s1,"inconclusive: 20.8 µM [inhibitor, single point]",
CSCCC(NC(=O)c1ccccc1Cl)C(=O)Nc1ccc(C)c(S(=O)(=O)N2CCOCC2)c1 (stereo unspecified),"inconclusive: 11.7 µM [inhibitor, single point]",
CC(=O)Nc1ccc(NC(=O)CSc2nnc(-c3ccccc3)n2Cc2ccc3c(c2)OCO3)cc1,"inconclusive: 1.85 µM [inhibitor, partial curve, poor fit]",
CCCCn1c(=NC(=O)c2ccco2)c(C(=O)OCC)cc2c(=O)n3cccc(C)c3nc21,active: 5.86 µM,
C=CCNC(=O)C1CCC(=O)N1S(=O)(=O)c1ccc(C)cc1 (stereo unspecified),"inconclusive: 8.28 µM [inhibitor, partial curve, poor fit]",
CCN1CCN(S(=O)(=O)c2ccc(Cl)c(C(=O)N(C)Cc3ccccc3)c2)CC1,,inactive: -19.6%

# As entered above:
# CCCCn1c(=NC(=O)c2ccco2)c(C(=O)OCC)cc2c(=O)n3cccc(C)c3nc21 | Potency: active: 5.86 µM
# CCOC(=O)N1CCN(C(=O)COc2cccc3c2CCN(CC)C3=O)CC1 | Potency: inconclusive: 18.5 µM [inhibitor, single point]
# COc1cccc(NC(=O)CN(C)CC(=O)c2c(C)[nH]c3ccccc23)c1 | Potency: active: 11.7 µM

# Going on with the list:

SMILES,Potency,"activity change, negative = inhibition"
O=C(NCC1CCN(c2ccc(S(=O)(=O)N3CCOCC3)cc2)CC1)Nc1ccccc1,"inconclusive: 13.1 µM [inhibitor, single point]",
Cc1cc(-n2nc(C)cc2C)nc(NS(=O)(=O)c2ccccc2)n1,"inconclusive: 4.15 µM [inhibitor, partial curve, poor fit]",
Cc1cc2cc3c(cc2nc1SCC(=O)O)OCCO3,"inconclusive: 4.65 µM [inhibitor, partial curve]",
O=C1c2ccc(Cl)cc2S(=O)(=O)c2cccc(C(=O)N3CCN(c4ccc(Cl)cn4)CC3)c21,,inactive: 35.4%
O=C(Cc1cccc(NC(=O)C2CCN(C(=O)CCc3ccccc3)CC2)c1)Nc1cccc(C(=O)N2CCCC2)c1,"inconclusive: 9.28 µM [inhibitor, partial curve, poor fit]",
COCc1cc(C)nc(SCc2ccccc2)c1C#N,"inconclusive: 14.7 µM [inhibitor, partial curve, poor fit]",
C/C=C/COC(=O)C1=C(C)NC(=O)NC1c1ccc2c(c1)OCO2 (stereo unspecified),"inconclusive: 18.5 µM [inhibitor, partial curve, poor fit]",
CC(=O)Nc1ccc(NC(=O)CSc2nc(N)c(NC(=O)c3ccco3)c(=O)[nH]2)cc1,"inconclusive: 18.5 µM [inhibitor, single point]",
CCN(CC)CC(O)CN1c2ccccc2Sc2ccccc21 (stereo unspecified),"inconclusive: 18.5 µM [inhibitor, single point]",
CCOC(=O)CC1=C(C(=O)OCC)C(c2ccc(OC)cc2OC)C(C#N)=C(N)O1 (stereo unspecified),"inconclusive: 18.5 µM [inhibitor, single point]",
COc1cc(OC)cc(C(=O)NNC(=O)c2cc(S(=O)(=O)N3CCOCC3)ccc2F)c1,"inconclusive: 18.5 µM [inhibitor, single point]",
Cc1cccc(NC(=O)c2ccc(S(=O)(=O)N3CCCCCC3)cc2)n1,"inconclusive: 9.28 µM [inhibitor, single point]",
CCOC(=O)c1c(-c2ccccc2)csc1NC(=O)c1cc2ccccc2oc1=O,active: 13.1 µM,
Cc1ccc(-c2cc([C@H]3[C@@H]4C=CCC[C@@]4(C)C(=O)N3Cc3ccccc3)ccc2F)cc1,"inconclusive: 18.5 µM [inhibitor, single point]",
Clc1ccccc1-c1nnc2n1-c1ccccc1SC2,"inconclusive: 1.31 µM [inhibitor, partial curve]",
C[C@H]1C(=O)N(C)CCN1Cc1cn(C)nc1-c1ccc(Oc2ccccc2)cc1,,inactive: -11.9%
O=C(CCC1CCCCC1)NCc1ccc(F)cc1,"inconclusive: 11.7 µM [inhibitor, single point]",
Cc1ccc(S(=O)(=O)N2CCN(c3ccc([N+](=O)[O-])c(Sc4nncn4C)c3)CC2)cc1,,inactive: 232%
Cc1cc(C(=O)COc2ccccc2C#N)c(C)n1C1CC1,"inconclusive: 4.15 µM [inhibitor, partial curve]",
NNC(=S)NCc1ccco1,"inconclusive: 9.28 µM [inhibitor, partial curve, poor fit]",
C=C1CCN([C@H](C(=O)NCc2ccc(OC)cc2)C(C)C)S(=O)(=O)c2ccccc21,"inconclusive: 13.1 µM [inhibitor, partial curve, poor fit]",
C=C(C)CNC(=S)N/N=C(\C)c1ccc(Cl)s1,"inconclusive: 9.28 µM [inhibitor, single point]",

SMILES,Potency,"activity change, negative = inhibition"
O=C(NCc1ccccc1F)C1CCCN(C(=O)Nc2ccc(F)cc2)C1 (stereo unspecified),"inconclusive: 1.17 µM [inhibitor, partial curve, poor fit]",
CC(=O)Nc1ccc2oc(-c3cc(F)c(F)cc3Cl)nc2c1,"inconclusive: 8.28 µM [inhibitor, partial curve, poor fit]",
CCOc1ccc(CN(C)CC(=O)Nc2ccc([N+](=O)[O-])cc2Cl)cc1,,inactive: -28.8%
CCc1c2ccccc2nn1-c1ccccc1C(=O)C(C)=O,"inconclusive: 14.7 µM [inhibitor, single point]",
CN(C(=O)COc1coc(CN2CCN(c3ccccc3)CC2)cc1=O)c1ccccc1,active: 13.1 µM,
O=C(CSc1ncccn1)Nc1ccc2c(c1)CCC2,,inactive: 82.7%
COc1cc(-c2noc(-c3cccs3)n2)cc(OC)c1OC,"inconclusive: 0.0329 µM [inhibitor, full curve, poor fit]",
CCn1c(SCC(=O)Nc2ccc(C(C)=O)cc2)nc2nc3c(cc2c1=O)COC(C)(C)C3,,inactive: 25.9%
Cc1ccc(C(=O)c2cnc3ccccc3c2-c2ccccc2)cc1,active: 10.4 µM,
CCOCCN1CCN(c2c3c(nc4cc(-c5ccc(F)cc5)nn24)CCC3)CC1,,inactive: 23.7%
CN(CC(=O)Nc1cccc(F)c1)C(=O)CC1CCCCC1,"inconclusive: 18.5 µM [inhibitor, single point]",
Cc1cc2c(cc1S(=O)(=O)NCc1ccc(Cl)cc1)OCC(=O)N2,,inactive: -23.1%
Cc1nn(-c2ccc(Cl)cc2)c2sc(C(=O)N3CCN(c4ccccn4)CC3)cc12,,inactive: -1.79%
CCCOC(=O)Nc1sc2c(c1C(=O)OCC)CCC2,"inconclusive: 18.5 µM [inhibitor, single point]",
Cc1[nH]n(C2=NCCS2)c(=O)c1N=Nc1cccc(C(F)(F)F)c1,"inconclusive: 8.28 µM [inhibitor, partial curve]",
C=CCSc1nnc(NC(=O)c2ccc(S(=O)(=O)NCC3CCCO3)cc2)s1 (stereo unspecified),"inconclusive: 9.28 µM [inhibitor, partial curve]",
COc1ccc(-c2noc(CN(C)C(=O)CCN3C(=O)[C@H]4CC=CC[C@H]4C3=O)n2)cc1,"inconclusive: 10.4 µM [inhibitor, single point]",
CCN(CC)S(=O)(=O)c1ccc(-c2cc(C(=O)OC)sc2C(F)(F)F)cc1,"inconclusive: 18.5 µM [inhibitor, single point]",
CC(=O)NCCNc1nc2c(-c3cccc(C)c3)nnn2c2ccccc12,"inconclusive: 9.28 µM [inhibitor, single point]",
CCCOc1ccc(CSc2n[nH]c(C)n2)cc1,,inactive: 106%
Cc1ccc(NC(=O)CSc2nc3nc(C)c(Br)cc3[nH]2)cc1F,,inactive: 15%
O=C(CCS(=O)(=O)c1ccccc1)Nc1ccc(S(=O)(=O)Nc2ncccn2)cc1,"inconclusive: 10.4 µM [inhibitor, partial curve, poor fit]",

# 2 records picked at random from the list so far, as already listed:
SMILES,Potency,"activity change, negative = inhibition"
O=C(CSc1ncccn1)Nc1ccc2c(c1)CCC2,,inactive: 82.7%
C=CCSc1nnc(NC(=O)c2ccc(S(=O)(=O)NCC3CCCO3)cc2)s1 (stereo unspecified),"inconclusive: 9.28 µM [inhibitor, partial curve]",
